Measurements: paper PMC7913925, “Design and Evaluation of a Polypeptide That Mimics the Integrin Binding Site for EDA Fibronectin to Block Profibrotic Cell Activity” (International Journal of Molecular Sciences, 2021)
Results are given in words; binding and its absence hold for the method and conditions named. In cells and extracts the contact can be indirect. A result given as binding can be weak or reduced; the word gives no strength.

Chains of the proteins cited; added tags and fusions are not shown. Lines headed by an entry give the natural chain unless they say otherwise; changes in a name come on top. Residues count along the entry.
UniProt Q00651: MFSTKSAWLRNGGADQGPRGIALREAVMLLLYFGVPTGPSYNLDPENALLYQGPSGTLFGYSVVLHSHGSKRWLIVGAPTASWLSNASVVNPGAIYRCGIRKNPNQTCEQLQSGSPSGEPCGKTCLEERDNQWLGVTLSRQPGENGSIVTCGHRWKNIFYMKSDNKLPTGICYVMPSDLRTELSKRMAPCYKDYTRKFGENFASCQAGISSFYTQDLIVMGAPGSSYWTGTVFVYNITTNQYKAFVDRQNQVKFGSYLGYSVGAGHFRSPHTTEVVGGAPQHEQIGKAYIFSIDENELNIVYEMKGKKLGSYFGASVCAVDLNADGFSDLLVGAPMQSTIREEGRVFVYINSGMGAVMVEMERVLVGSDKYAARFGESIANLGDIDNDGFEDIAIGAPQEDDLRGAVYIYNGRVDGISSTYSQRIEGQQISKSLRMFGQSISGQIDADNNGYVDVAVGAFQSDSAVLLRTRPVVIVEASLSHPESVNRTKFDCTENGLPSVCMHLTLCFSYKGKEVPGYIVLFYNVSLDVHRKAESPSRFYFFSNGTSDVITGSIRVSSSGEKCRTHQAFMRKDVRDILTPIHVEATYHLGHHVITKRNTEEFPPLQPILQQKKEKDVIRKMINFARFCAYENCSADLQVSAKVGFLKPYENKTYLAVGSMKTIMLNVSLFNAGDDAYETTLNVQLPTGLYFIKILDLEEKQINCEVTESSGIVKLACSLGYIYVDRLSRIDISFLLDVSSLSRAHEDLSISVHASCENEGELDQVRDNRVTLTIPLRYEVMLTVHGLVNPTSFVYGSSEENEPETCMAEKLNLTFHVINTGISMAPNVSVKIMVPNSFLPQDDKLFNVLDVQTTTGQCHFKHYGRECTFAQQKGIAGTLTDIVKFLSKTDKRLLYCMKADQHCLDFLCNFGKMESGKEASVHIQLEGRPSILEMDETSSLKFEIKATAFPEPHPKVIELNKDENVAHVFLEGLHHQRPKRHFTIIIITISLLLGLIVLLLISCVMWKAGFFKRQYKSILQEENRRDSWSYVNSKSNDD
UniProt P10923, residues 17-294: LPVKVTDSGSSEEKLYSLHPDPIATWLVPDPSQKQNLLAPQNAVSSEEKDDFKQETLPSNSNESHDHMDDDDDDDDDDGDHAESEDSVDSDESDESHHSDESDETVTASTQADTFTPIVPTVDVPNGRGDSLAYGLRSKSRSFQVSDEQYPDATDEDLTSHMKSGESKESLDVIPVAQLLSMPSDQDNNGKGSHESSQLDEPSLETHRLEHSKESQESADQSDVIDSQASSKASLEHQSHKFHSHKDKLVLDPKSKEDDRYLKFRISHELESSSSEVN

Target: integrin α4 protein (ITGA4) (not stated (endogenous in fibroblasts; mouse NIH/3T3 and human HFL1 cells were cultured)) (UniProt Q00651)
Test: co-IP; 25 µg total protein of cell lysate in nondenaturing lysis buffer, anti-ITGA4 antibodies on protein A/G sepharose beads, Western blot of coeluted proteins; cells treated 48 h with TGF-β1, AF38Pep or TGF-β1+AF38Pep

binding: binds
Substance: osteopontin (OPN) (from UniProt P10923 17-294) (ligand)
